Among the data in the supplement of paper PMC10849652 are log2 fold change values, retold here.

Amino acid sequences for entries named in this document (tags omitted). A change or cut given only in a name is not applied to a line headed by its entry.
UniProt Q96BT3, whole entry, looked up: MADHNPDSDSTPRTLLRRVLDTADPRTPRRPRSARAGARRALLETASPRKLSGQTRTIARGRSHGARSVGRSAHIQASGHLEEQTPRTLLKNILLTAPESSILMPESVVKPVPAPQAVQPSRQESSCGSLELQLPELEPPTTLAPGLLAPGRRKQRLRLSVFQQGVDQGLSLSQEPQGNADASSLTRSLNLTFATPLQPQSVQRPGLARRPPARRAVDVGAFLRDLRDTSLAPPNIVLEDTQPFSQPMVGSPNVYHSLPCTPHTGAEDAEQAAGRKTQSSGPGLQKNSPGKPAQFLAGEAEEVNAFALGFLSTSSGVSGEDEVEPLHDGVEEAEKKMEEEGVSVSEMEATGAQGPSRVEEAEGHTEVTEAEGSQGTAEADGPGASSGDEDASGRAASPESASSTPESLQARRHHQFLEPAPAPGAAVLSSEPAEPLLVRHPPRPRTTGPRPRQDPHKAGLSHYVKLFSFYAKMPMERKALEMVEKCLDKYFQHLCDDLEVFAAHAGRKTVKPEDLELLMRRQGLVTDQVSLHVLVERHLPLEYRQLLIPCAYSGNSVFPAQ
UniProt Q6DT37: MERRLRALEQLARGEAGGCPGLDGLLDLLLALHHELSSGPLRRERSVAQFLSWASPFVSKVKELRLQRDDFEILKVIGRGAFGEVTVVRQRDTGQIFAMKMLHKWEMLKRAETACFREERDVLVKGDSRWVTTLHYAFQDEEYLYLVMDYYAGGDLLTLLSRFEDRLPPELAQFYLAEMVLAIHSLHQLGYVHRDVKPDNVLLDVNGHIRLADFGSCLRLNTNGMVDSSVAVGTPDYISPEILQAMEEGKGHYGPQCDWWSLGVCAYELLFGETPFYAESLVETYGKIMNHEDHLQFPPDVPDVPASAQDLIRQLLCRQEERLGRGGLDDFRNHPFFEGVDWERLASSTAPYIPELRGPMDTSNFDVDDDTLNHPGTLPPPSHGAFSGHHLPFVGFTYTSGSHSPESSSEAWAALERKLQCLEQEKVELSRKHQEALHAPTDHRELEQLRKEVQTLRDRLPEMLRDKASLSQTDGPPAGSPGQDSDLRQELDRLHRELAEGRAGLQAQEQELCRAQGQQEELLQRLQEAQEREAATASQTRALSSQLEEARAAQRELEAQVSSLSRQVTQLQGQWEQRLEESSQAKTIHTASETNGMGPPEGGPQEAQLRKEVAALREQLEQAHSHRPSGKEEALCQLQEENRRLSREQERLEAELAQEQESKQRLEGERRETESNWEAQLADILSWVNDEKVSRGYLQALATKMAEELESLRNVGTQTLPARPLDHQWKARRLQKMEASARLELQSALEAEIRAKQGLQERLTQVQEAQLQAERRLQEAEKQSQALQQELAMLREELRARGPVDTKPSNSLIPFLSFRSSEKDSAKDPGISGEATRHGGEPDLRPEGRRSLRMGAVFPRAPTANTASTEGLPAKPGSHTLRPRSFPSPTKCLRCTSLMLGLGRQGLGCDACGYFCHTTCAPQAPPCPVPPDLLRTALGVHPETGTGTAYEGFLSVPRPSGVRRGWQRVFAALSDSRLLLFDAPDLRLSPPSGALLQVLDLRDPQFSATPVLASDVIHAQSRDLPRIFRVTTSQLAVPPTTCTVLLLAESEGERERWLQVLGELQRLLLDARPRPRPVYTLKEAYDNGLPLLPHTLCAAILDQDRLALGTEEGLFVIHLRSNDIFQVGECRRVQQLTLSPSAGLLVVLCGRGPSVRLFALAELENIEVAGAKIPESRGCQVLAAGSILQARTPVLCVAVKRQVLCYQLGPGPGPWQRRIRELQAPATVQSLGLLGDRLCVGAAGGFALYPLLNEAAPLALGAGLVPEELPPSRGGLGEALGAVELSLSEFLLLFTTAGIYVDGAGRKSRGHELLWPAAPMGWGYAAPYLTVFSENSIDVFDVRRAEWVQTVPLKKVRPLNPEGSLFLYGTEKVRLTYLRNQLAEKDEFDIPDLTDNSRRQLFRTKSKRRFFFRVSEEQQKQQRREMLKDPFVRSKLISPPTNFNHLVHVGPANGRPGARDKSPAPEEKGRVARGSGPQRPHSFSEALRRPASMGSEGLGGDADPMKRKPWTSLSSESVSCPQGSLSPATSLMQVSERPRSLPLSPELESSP
UniProt P07199: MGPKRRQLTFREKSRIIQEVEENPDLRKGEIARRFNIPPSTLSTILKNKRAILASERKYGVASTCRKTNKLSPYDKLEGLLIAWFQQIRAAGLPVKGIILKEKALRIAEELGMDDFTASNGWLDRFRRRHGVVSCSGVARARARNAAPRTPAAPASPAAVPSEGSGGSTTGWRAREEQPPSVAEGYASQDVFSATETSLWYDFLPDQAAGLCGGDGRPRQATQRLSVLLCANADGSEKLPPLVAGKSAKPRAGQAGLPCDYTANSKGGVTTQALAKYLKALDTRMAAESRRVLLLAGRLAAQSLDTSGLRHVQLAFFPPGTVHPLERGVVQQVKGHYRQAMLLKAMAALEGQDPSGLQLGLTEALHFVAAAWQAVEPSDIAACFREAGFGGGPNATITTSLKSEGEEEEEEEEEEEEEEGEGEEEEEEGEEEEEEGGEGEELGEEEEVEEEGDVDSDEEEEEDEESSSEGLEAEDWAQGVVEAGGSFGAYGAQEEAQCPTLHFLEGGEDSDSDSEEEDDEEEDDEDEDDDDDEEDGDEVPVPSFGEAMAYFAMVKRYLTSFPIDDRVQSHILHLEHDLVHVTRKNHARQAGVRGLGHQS
UniProt Q9HCU4: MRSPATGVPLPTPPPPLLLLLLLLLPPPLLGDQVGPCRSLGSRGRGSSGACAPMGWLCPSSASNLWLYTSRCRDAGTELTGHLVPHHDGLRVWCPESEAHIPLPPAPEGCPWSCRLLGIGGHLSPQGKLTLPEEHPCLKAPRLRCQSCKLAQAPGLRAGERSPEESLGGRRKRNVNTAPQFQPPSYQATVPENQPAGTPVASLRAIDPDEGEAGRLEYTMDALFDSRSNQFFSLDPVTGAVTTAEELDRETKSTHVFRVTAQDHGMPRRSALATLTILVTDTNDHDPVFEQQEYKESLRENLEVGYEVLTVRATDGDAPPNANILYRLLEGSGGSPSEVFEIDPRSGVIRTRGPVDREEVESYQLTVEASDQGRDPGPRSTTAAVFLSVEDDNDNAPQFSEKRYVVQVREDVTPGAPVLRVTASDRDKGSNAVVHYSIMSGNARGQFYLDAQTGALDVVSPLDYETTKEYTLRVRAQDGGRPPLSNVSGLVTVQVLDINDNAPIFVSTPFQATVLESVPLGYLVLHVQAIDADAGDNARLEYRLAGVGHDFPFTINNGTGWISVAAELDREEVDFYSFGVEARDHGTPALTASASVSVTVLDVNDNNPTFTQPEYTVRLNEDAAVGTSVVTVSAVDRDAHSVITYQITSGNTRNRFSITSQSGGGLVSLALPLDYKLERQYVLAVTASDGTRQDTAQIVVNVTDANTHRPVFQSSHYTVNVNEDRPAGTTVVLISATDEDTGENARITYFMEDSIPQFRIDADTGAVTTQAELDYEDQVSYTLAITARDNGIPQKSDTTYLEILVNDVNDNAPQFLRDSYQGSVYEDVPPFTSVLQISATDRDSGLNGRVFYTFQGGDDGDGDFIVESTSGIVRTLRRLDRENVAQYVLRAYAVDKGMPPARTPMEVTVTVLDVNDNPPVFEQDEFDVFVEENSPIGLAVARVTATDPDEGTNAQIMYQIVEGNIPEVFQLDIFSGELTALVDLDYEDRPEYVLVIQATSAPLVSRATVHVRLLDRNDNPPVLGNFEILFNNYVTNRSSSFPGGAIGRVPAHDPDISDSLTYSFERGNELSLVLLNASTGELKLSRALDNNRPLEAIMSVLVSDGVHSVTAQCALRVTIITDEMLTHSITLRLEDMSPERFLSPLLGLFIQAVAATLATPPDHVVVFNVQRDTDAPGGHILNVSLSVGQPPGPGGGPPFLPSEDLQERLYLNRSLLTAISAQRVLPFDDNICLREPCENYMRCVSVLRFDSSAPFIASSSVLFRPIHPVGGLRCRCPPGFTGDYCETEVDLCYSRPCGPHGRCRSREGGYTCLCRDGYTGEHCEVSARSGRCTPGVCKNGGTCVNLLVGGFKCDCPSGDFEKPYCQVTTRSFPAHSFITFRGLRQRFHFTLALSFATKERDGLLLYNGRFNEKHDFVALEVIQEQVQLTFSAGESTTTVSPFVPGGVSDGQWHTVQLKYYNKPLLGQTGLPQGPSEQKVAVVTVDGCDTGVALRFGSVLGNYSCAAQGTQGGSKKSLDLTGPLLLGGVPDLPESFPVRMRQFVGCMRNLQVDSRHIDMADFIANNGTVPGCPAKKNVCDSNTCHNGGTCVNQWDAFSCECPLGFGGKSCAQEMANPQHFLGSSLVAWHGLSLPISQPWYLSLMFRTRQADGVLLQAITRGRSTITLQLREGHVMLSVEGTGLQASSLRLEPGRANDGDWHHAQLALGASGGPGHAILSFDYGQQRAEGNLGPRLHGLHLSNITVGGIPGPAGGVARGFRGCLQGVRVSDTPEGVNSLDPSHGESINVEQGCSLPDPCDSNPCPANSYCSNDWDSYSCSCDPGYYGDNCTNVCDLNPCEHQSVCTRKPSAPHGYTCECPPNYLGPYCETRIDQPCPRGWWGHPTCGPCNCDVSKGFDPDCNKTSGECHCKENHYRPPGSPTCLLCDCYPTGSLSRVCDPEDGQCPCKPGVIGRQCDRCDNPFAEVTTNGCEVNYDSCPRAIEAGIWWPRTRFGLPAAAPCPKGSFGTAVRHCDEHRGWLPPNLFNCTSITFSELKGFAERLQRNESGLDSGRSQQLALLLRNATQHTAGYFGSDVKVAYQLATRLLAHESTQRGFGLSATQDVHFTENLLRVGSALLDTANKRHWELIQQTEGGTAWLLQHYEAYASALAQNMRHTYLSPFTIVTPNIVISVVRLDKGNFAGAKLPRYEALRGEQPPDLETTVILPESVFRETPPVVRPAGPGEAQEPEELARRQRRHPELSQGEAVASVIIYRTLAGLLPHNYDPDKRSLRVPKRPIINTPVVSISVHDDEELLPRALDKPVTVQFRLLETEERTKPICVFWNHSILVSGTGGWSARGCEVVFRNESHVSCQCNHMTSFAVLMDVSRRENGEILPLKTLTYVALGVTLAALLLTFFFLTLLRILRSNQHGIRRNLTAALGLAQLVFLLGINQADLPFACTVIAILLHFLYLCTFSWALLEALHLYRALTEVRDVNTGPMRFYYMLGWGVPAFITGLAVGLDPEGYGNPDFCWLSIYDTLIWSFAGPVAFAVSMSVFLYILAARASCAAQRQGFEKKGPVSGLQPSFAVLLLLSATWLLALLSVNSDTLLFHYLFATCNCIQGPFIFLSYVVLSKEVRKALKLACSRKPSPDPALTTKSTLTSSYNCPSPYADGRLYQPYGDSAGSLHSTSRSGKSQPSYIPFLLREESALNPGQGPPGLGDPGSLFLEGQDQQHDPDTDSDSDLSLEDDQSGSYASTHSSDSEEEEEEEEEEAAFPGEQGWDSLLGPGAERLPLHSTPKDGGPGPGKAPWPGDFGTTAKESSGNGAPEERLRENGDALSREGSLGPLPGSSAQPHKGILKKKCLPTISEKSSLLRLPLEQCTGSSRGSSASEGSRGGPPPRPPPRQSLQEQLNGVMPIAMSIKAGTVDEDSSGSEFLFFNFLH
UniProt P53567: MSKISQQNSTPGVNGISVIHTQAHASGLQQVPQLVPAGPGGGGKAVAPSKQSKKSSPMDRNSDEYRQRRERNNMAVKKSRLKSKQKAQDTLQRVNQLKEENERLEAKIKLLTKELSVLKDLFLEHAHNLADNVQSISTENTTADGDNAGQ
UniProt Q6NVV7: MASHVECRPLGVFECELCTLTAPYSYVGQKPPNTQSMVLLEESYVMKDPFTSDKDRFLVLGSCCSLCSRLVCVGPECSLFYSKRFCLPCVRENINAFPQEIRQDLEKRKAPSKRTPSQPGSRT
UniProt Q9UNH5: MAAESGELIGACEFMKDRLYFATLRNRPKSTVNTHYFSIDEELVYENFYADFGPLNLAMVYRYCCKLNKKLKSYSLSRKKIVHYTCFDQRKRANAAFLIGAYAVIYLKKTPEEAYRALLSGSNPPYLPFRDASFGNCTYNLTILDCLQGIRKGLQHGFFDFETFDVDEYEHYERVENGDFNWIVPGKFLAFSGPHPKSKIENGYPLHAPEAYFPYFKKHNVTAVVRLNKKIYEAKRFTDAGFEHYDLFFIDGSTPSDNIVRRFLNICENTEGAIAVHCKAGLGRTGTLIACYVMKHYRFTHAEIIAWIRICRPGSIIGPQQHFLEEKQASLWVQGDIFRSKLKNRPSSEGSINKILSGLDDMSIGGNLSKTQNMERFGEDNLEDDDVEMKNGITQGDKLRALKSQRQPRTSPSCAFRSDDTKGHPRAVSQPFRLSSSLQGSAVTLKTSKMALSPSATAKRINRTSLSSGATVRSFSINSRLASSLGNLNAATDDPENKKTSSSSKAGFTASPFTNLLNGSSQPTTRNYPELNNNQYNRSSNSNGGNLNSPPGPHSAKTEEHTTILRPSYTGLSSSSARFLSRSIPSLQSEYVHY

Holding throughout (experiment): log2 fold change, soluble protein after heating vs DMSO (PISA); higher = thermal stabilisation; K562 lysate, 10 uM; active = over 0.2 and 3.5 SD of the protein, either way, in both replicates (recomputed)
Compound in one assay: O=C(CCCCCCC(=O)Nc1ccccc1)NO [vorinostat]
The essentials:
(§1)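 Dounce homogenisation of K562 pellets in PBS pH 7.4 with 1 mM MgCl2 produced a crude extract, used at 1 mg/mL protein. Exposure to 10 μM compound lasted 30 min, and aliquots were then heated for 3 min across 48°C-58°C, pooled and brought to 0.5% NP-40 at 4°C. The supernatant after 21,000xg for 90 min was quantified by TMTpro 16plex LC-MS/MS with channel sums equalised. Duplicate values are given as log-two fold change in thermal stability relative to solvent controls.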

Compound in another assay: O=C(O)c1ccc2c(c1)nc(Nc1cccc(Cl)c1)c1ccncc12 [silmitasertib]
A digest of the protocol:
as §1

Compound in assay [1]: O=C1NC(=O)C(c2cnc3ccccn23)=C1c1cn2c3c(cc(F)cc13)CN(C(=O)N1CCCCC1)CC2
The essentials:
as §1

Compound in the next assay: c1cn2cc(-c3ccc4cn[nH]c4c3)nc(Nc3ccc(N4CCOCC4)cc3)c2n1 [entospletinib]
A digest of the protocol: as §1

This is one part of the list.

Regarding CENPT (UniProt Q96BT3), the log2 fold change is inactive: 0.026 in the assay with vorinostat and inactive: -0.153 with silmitasertib.
On to CDC42BPG (UniProt Q6DT37), for which the log2 fold change in assay [1] is inactive: -0.009.
For CDAN1 (UniProt H3BPZ6), the log2 fold change in assay [1] is inactive: 0.006.
In the case of CENPB (UniProt P07199), the log2 fold change with entospletinib is inactive: 0.292.
Consider CELSR2 (UniProt Q9HCU4), for which the log2 fold change with vorinostat is inactive: 0.221; with silmitasertib, inactive: 0.142.
Turning to CEBPG (UniProt P53567), the log2 fold change in assay [1] is inactive: 0.139.
Turning to CEP295 isoform 3 (UniProt Q9C0D2), the log2 fold change with vorinostat was inactive: -0.004; in the assay with silmitasertib, inactive: 0.076; in assay [1], inactive: -0.076; in the assay with entospletinib it was inactive: 0.087.
Regarding CDPF1 (UniProt Q6NVV7), the log2 fold change in assay [1] is inactive: -0.059.
CDC14A isoform 2 (UniProt Q9UNH5): the log2 fold change in assay [1] was inactive: -0.11.
